At least one compound was matched to its structure with a doubt left.
Tested on: HUVEC
Experiment: In vitro endothelial cell proliferation assay
Format: cell-based, Human
Method: Human umbilical vein endothelial cells (HUVEC) were purchased from Clonetics or isolated from umbilical vein cords by mild collagenase treatment as described and cultured in M199 with Earle's salts (Sigma) with 20% heat inactivated fetal bovine serum (Sigma), 100 IU/mL penicillin 100 μg/mL streptomycin (Gibco), 250 ng/mL fungizone (Gibco), 2 mM glutamine (Gibco), 5 IU/mL heparin (Sigma) and 50 μg/mL ECGS (Technoclone, Vienna, Austria). Human vascular smooth muscle cells (HVSMC) were isolated as described.
3×10^3 cells were plated in 96-well plates and allowed to attach overnight. Growth was arrested by incubation with 100 μL reduced growth medium (M199 with 2% FBS) for 24 h. Thereafter anti-tPA antibodies and other reagents were added to wells. K2P (Reteplase), anti-kringle 2 (7VPA) and anti-finger/EGF antibodies (3VPA and 6VPA) were a gift from Technoclone, Vienna, Austria. […] After 4 days of incubation cell number was quantified colorimetrically by the addition of 20 μL CellTiter 96 AQueous One Solution Cell Proliferation Assay (Promega) at 492 nm and 620 nm reference filter. Background absorbance was determined with substrate alone and subtracted from all wells.
HUVEC were plated at 1×10^5 cells in 12 well plates overnight. […] After 3 days incubation cells were counted in a hemocytometer.

## O=c1cc(N2CCOCC2)oc2c(-c3ccccc3)cccc12 [LY294002, reference compound]
10 ng/mL VEGF
  VEGF stimulated HUVEC growth: blocked
HUVEC stimulated with 700 nM (or 1400 nM) 7VPA, simultaneous addition, 4 days
  effect on anti-kringle 2 (7VPA) induced HUVEC proliferation: blocked
